In article PMC5399188:
Results are given in words; binding and its absence hold for the method and conditions named. Binding seen in cells or lysates may run through a third protein. Some entries that bind do so weakly or less than the wild type. Where a sequence is shown, tags or fusion partners need not be part of it.

Chains of the proteins cited; added tags and fusions are not shown.
UniProt Q15796: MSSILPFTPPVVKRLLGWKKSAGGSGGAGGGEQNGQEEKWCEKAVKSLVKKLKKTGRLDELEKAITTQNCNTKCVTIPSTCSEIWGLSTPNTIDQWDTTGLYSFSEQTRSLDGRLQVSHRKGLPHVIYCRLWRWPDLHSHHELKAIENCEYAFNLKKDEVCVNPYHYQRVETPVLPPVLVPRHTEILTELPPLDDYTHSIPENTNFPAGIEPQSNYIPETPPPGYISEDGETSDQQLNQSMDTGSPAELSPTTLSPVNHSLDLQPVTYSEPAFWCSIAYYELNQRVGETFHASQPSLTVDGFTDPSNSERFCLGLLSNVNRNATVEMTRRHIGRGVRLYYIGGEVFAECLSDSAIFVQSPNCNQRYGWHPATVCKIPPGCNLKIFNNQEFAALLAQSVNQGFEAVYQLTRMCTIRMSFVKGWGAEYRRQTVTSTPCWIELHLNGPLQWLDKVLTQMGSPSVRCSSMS
UniProt P84022: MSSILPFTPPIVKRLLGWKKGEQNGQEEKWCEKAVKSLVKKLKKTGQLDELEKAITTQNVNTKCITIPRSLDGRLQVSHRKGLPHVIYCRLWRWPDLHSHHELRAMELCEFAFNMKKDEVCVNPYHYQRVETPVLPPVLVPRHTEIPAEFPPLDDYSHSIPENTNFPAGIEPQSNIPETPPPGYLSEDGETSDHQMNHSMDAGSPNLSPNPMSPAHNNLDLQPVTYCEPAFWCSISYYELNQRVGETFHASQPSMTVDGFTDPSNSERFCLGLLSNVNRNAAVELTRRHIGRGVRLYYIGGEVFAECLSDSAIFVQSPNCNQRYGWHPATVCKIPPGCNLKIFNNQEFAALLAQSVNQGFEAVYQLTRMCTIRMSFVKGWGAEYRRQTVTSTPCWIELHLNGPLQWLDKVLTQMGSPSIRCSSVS

Columns and labels:
[1] = biological target: HA-VC155-SMAD2 (UniProt Q15796); experiment: split reporter; BiFC competition in HEK293 cells: FLAG-VN173-AIMP1 with 0.5 ug HA-VC155-SMAD2 or -SMAD3 in the presence or absence of Myc-AIMP1 (0.1, 0.5 or 1 ug); read 24 h after transfection, fluorescent signals counted
[2] = biological target: HA-VC155-SMAD3 (UniProt P84022); experiment: as above

B1: myc-AIMP1 (protein, UniProt Q12904 1-312)
chain: MANNDAVLKRLEQKGAEADQIIEYLKQQVSLLKEKAILQATLREEKKLRVENAKLKKEIEELKQELIQAEIQNGVKQIPFPSGTPLHANSMVSENVIQSTAVTTVSSGTKEQIKGGTGDEKKAKEKIEKKGEKKEKKQQSIAGSADSKPIDVSRLDLRIGCIITARKHPDADSLYVEEVDVGEIAPRTVVSGLVNHVPLEQMQNRMVILLCNLKPAKMRGVLSQAMVMCASSPEKIEILAPPNGSVPGDRITFDAFPGEPDKELNPKKKIWEQIQPDLHTNDECVATYKGVPFEVKGKGVCRAQTMSNSGIK
[1]
  binding: binds
[2]
  binding: binds
